From US10030027B2, “Soluble guanylate cyclase stimulators” (MERCK SHARP & DOHME CORP., priority 2015, dated 2018)
The match of structure and compound is tentative.

Target: human recombinant sGC enzyme (Homo sapiens (Human), UniProt Q02108+Q02153)
Assay: Size Exclusion Chromatography (SEC) competition binding assay using [3H] Ex-77B as the radioligand
Conditions: [3H] Ex-77B radioligand, 24 hours at 37° C.

SMILES: CC1(C2CCC(CCC(=O)O)CC2)C(=O)Nc2nc(-c3nn(Cc4cccc(F)c4)c4cc(Cl)ccc34)nc(N)c21 (single isomer, unassigned) [263BA]
- Ki: 0.127 nM
